Source: the supplement of paper PMC11732987, “Enantioselective OTUD7B fragment discovery through chemoproteomics screening and high-throughput optimisation” (Communications Chemistry, 2025)
The other results are listed elsewhere or left out. The data scatter; read single values as rough.

Each target was assayed with ClCC(=O)N[C@@H]1CCCc2ccccc12 (assay: log2 mean competition ratio of IA-DTB cysteine labelling (DMSO/compound) (log2 ratio); higher = stronger cysteine engagement by compound). Details: 50 µM; treatment time: 4 h; cell line lysate: HEK293T.
Description: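 IA-DTB competitive cysteine chemoproteomics in HEK293T RIPA lysate. Lysates were treated with compound 29 or 30 at 50 or 200 µM for 4 h, then IA-DTB (500 µM, 1 h), trypsin-digested, NeutrAvidin-enriched and analysed by diaPASEF. Competition ratio = intensity DMSO / intensity compound (n=4 treated, n=64 DMSO); binding: mean log2 CR ≥ 1 and p ≤ 0.05 plus QC filters. Target is the cysteine site.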

Row | Target | log2 mean competition ratio
1 | RFK C8 (UniProt Q969G6) | 0.156
2 | RCCD1 C139 (UniProt A6NED2) | -0.0136
3 | RARS2 C311 (UniProt Q5T160) | -0.147
4 | RBL2 C368 (UniProt Q08999) | 0.124
5 | RECQL C447 (UniProt P46063) | 0.273
6 | RASA1 C876 (UniProt P20936) | -0.0537
7 | RILPL2 C161 (UniProt Q969X0) | -0.0224
8 | RB1CC1 C572 (UniProt Q8TDY2) | -0.0187
9 | RMI1 C268 (UniProt Q9H9A7) | 0.162
10 | RIF1 C1718 (UniProt Q5UIP0) | -0.0348
11 | RALGAPA2 C1662 (UniProt Q2PPJ7) | -0.00575
12 | RCL1 C171 | 0.392
13 | RBM45 C90 (UniProt Q8IUH3) | -0.229
14 | RHOBTB3 C155 (UniProt O94955) | 0.199
15 | RAP1GDS1 C117 (UniProt P52306) | 0.296
16 | RBM34 C196 (UniProt P42696) | 0.0586
17 | RIOX2 C19 (UniProt Q8IUF8) | 0.179
18 | RAI14 C68 (UniProt Q9P0K7) | -0.234
19 | RBM12B C837 (UniProt Q8IXT5) | 0.0545

Retrieved one by one from the list above, 2 records:
Row | Target | log2 mean competition ratio
17 | RIOX2 C19 (UniProt Q8IUF8) | 0.179
4 | RBL2 C368 (UniProt Q08999) | 0.124

More entries

Row | Target | log2 mean competition ratio
20 | RHOF C173 (UniProt Q9HBH0) | 0.248
21 | RCC1L C329 (UniProt Q96I51) | 0.306
22 | RANBP2 C188 (UniProt P49792) | -0.00132
23 | RCC2 C42 (UniProt Q9P258) | 0.0291
24 | RASSF7 C122 (UniProt Q02833) | -0.0363
25 | RB1CC1 C925 (UniProt Q8TDY2) | -0.0309
26 | RELCH C605 (UniProt Q9P260) | -0.0231
27 | RFWD3 C379 (UniProt Q6PCD5) | -0.057
28 | RIPK2 C324 (UniProt O43353) | -0.068
29 | RBM19 C77 (UniProt Q9Y4C8) | -0.0245
30 | RIMOC1 C51 | -0.0842
31 | RBM26 C25 (UniProt Q5T8P6) | -0.216
32 | RHOQ C144 (UniProt P17081) | -0.138
33 | REST C945 (UniProt Q13127) | -0.351
34 | RARS1 C638 | 0.498
35 | RFC1 C916 (UniProt P35251) | -0.229
36 | RANBP10 C569 (UniProt Q6VN20) | 0.143
37 | RFLNB C186 (UniProt Q8N5W9) | 0.662
38 | RBM4B C89 (UniProt Q9BQ04) | -0.0553
